# Reference: doi:10.1101/2020.03.02.973057
# The chains behind the UniProt entries cited, without tags or fusion partners.
# UniProt Q38C92: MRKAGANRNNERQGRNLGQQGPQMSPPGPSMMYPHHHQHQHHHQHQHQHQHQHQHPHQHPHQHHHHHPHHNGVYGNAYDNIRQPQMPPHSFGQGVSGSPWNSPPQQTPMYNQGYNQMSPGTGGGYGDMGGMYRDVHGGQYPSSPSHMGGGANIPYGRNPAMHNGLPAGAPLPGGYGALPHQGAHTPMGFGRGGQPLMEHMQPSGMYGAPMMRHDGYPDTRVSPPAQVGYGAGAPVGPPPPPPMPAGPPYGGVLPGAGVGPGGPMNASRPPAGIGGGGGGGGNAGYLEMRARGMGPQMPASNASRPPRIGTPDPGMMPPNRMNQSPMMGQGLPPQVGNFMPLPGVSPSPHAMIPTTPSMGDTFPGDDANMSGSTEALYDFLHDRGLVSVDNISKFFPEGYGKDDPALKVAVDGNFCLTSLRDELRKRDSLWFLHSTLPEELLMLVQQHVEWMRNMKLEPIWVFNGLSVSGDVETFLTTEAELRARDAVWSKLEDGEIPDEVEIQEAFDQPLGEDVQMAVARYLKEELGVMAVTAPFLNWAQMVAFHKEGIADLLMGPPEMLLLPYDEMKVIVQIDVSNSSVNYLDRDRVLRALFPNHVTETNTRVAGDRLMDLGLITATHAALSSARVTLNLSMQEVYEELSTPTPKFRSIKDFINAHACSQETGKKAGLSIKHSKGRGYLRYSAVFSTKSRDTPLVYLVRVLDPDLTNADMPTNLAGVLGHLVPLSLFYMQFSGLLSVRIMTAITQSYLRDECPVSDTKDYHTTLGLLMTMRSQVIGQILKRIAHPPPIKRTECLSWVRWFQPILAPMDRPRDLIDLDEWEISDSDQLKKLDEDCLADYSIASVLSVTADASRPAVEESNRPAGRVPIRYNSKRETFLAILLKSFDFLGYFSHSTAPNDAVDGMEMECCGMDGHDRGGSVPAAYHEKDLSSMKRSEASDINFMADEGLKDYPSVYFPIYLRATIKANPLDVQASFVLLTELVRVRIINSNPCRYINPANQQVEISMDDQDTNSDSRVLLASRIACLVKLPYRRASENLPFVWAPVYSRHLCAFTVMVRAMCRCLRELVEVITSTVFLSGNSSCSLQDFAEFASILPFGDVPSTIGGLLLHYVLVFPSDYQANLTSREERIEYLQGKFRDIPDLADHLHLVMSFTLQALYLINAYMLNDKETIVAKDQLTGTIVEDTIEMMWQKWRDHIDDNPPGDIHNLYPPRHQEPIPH
# Like-named read-outs stand apart in the source and are kept apart here. No constants are given. Whether binding was seen depends on the method and setting. In cells and extracts the contact can be indirect. Some results given as binding are weak or reduced against the parent protein; the word gives no strength. Where a sequence is shown, tags or fusion partners need not be part of it.
# B1: YFP-XAC1 (protein, UniProt Q57Y88 1-117)
# chain: MSKAPSQPAKKWMSARTLAKSEDATNRKSNTAAPASQPSQQPASVMHERPTPPPPAPVQLPQSVFFERQEAVDTLSNLYRNAQSVKKIETGPAAFEARDISKVHEELMDCLRPAAAA
# B2: LSM12-myc (protein, UniProt Q38E83 1-190)
# chain: MPVCNNDSQLIGLGVSVTLADDTTVNGTVYTYNSSEGLLVLFQGFSGSNPNVKIIRTPFIKEVTALRDNEEKLPPQLEAKARLPSMQAARDRSLFKHASSQLRNAKDKRNQLLQTDDQKTPIAALDTLIKLERIYPDIHWDKDAGVIRFNQDVVVKGKPDWTSPAVVIAEGAGDISRSLMERVQKTLSKK
# B3: V5-MKT1 (protein, UniProt Q587E3 1-735)
# chain: MYPRHDDVSLFQRFVNDHKLEEKGLPLYQLAQLEGTDQVMLGVDGTKIIDMITQAVREREKMAIYTYTTPYTVYEKINEFRTMFQSIKNCTPVFVFNGIQYSPDSAEEFGREKNVVPSEVAALTGTDSSRLSNTTNVRFAEIHKKTANRFVVEEDVEGQIIRIFRSEFKNTIRAPYLAWAQLSSFRHCNHRHISEVYGCLELLAFPGIDRVVTNINPTRGTFDVVYKARVLEAARLSEEDLSSLILVESRSRVMRTVTLKFSSLEDMIKKVVRYKGSTIGASFAQQLHEEAIRASEANRMRASNQRGAAFRNLSAFASPVLTLTPPHCLPLHFLYGIPGFPHADAESFVGLPLPPVLYYIMSAGLLSPSLFAAVSQETVVDDWPLVDSIKYRDVAETVLPLRVQTIYQLAWTMSRGLGSISWFRRYNVLPARVSKLHVPPAIQLDGWALHSVTVPRGLHLVDVMEFAHLACSVDQVIYNTMEETYAAILLQSLDLLGYLTHETQDLHEEGQSSEPSTFGRALQLCSVPTLSEYTVLLIELARTNAISTEPFRITTEEVSPRDTPRDIVFASRVLSIIPLNVSGPWTAPIDAELAAFSMLSRMISRSIRQLLEAITTLMFSKGRTHVPLHRIGEIQRLLPFSTPVEFGCGVLVEYMLMKDKCTLKDLEEAFPECTYLRHDLATLFYFWDLAVQVLQRIETKENFCVDQHCLSSANERMKRAQKNLNILTGVRETYY
# Assays:
# Assay in all cases: co-IP
# [1] = biological target: T1, ZC3H20-myc (Trypanosoma brucei) (UniProt Q57XK8)
# T1 sequence: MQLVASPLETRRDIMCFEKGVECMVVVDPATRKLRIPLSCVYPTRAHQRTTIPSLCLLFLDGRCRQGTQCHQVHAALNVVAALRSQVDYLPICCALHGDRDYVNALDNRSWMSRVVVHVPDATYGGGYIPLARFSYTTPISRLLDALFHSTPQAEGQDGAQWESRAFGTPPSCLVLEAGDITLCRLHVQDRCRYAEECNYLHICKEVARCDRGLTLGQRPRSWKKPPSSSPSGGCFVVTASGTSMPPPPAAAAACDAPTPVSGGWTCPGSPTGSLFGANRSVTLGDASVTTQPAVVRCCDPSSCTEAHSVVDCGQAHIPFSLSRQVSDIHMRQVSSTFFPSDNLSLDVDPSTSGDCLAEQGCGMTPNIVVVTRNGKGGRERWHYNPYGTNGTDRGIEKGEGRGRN
# [2] = biological target: T2, LSM12-myc (Trypanosoma brucei) (UniProt Q38E83)
# T2 sequence: B2 chain
# [3] = biological target: T3, YFP-XAC1 (Trypanosoma brucei) (UniProt Q57Y88)
# T3 sequence: B1 chain
# [4] = biological target: T1, ZC3H20-myc (Trypanosoma brucei); remark: listed apart in the source
molecule,measurement,setting,value
V5-MKT1L (from UniProt Q38C92 1-1220),binding,[1],binds weakly
B1,binding,[2],binds
B2,binding,[3],binds
B3,binding,[4],binds
